Measured values reported in paper PMC9732821, “Neurotrophic Activity and Its Modulation by Zinc Ion of a Dimeric Peptide Mimicking the Brain-Derived Neurotrophic Factor N-Terminal Region” (ACS Chemical Neuroscience, 2022).

Assays:
[1] = potentiometric titration, Zn^2+ complex stability constants; type: binding
Method: Potentiometric measurements were carried out to give insight into the coordination environment of Zn^2+ bound to the d-bdnf peptide (Figure S5). […] The four protonation equilibria of the aspartic and glutamic residues partly overlap but, in agreement with the literature data, the aspartic β-carboxylic group is more acidic than glutamic γ-carboxylic one.[48] The potentiometric titrations were carried out exploring 0.9:1 and 2.2:1 metal to ligand molar ratio. […] The peptide forms two complex species, [ZnLH] and [ZnL]. The first one is the predominant at pH = 6, and the calculated stability constant value [logK(111) = logβ(111) – logK(011) = 5.71] indicates the involvement of three nitrogen atoms in the metal coordination environment. The [ZnL] species display a stability constant value, logβ = 7.15, higher than that of protonated species indicative of the involvement of a further nitrogen atom in the metal binding mode. In this complex species, Zn^2+ is bound to four nitrogen atoms with the involvement of two amino and two imidazole (2NH2,2NIm coordination mode). […]
Potentiometric measurements
Potentiometric titrations were carried out on a Titrando 905 automatic, using a combined glass-Ag/AgCl electrode (Metrohm, Switzerland). Solutions (2.0 mL) were thermostated at 298 K and in argon atmosphere. The ionic strength was 0.1 M in KNO3. A 0.1 M solution of KOH was used to titrate solutions containing either the peptides only (protonation constants) or the peptides with Zn2+ (complexation constants). The peptide concentrations range used was 1-2 mM in both series of experiments. At least three independent titrations were performed. Starting pH value was adjusted to 2.4 by adding HNO3 0.2 M. The titrations were carried out up to pH 8.5. Metal ion/ligand ratios between 0.9:1 and 2.2:1 were employed. To avoid systematic errors and verify reproducibility, the EMF values of each experiment were recorded at different time intervals. The data were analyzed by […]
using HYPERQUAD 2003 program 17. […]

[2] = HR-ESI-MS peptide–zinc interaction; type: binding; settings: 10^–6 M peptide, 100-fold excess Zn^2+, 2 h, 37 °C

Row | Substance | number of zinc ions bound ([1]; 0.9:1 and 2.2:1 metal to ligand, only mononuclear species) | logK(111) = logβ(111) – logK(011) ([1]; [ZnLH], 298 K, 0.1 M KNO3) | logβ of [ZnL] ([1]; [ZnL], 2NH2,2NIm, 298 K, 0.1 M KNO3) | Zn^2+ binding stoichiometry [2]
1 | HSDPARRGELSVC-C-VSLEGRRAPDSH (disulfide) [d-bdnf] | able to bind one zinc ion | 5.71 | 7.15 | coordinate one metal center
2 | HSDPARRGELSV-NH2 [m-bdnf, linear peptide fragment encompassing the first 12 amino acids of the mature NT N-terminal] |  |  |  | coordinate one metal center
